# Experimental data published in the supplement of paper PMC10849652.
# Protein sequences, listed by entry. Tags and fused reporters are not part of them. Lines headed by an entry give the natural chain unless they say otherwise; changes in a name come on top.
# UniProt P62136, whole entry, looked up: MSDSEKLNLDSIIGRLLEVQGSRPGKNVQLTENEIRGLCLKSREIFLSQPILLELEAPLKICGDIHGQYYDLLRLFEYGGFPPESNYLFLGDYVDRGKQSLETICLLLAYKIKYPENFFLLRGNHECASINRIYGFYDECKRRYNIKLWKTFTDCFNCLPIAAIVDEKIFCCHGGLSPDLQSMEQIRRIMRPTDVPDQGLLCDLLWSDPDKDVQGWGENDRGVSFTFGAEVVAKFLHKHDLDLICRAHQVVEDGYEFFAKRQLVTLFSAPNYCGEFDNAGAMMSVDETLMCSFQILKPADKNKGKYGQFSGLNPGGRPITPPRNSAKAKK
# UniProt Q96C90: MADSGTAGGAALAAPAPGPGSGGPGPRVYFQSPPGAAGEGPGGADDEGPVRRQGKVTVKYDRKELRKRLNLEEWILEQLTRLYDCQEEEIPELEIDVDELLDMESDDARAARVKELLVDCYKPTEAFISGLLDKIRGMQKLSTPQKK
# UniProt P54619: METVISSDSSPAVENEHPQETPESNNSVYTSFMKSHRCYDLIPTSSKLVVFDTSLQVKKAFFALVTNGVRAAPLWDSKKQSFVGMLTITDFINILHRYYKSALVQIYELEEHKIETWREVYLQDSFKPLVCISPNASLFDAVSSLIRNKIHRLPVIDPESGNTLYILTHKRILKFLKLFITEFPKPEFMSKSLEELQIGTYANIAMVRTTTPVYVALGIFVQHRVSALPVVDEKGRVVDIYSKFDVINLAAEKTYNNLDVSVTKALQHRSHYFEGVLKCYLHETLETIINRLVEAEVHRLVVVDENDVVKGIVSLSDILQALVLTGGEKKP
# UniProt P31323, whole entry, looked up: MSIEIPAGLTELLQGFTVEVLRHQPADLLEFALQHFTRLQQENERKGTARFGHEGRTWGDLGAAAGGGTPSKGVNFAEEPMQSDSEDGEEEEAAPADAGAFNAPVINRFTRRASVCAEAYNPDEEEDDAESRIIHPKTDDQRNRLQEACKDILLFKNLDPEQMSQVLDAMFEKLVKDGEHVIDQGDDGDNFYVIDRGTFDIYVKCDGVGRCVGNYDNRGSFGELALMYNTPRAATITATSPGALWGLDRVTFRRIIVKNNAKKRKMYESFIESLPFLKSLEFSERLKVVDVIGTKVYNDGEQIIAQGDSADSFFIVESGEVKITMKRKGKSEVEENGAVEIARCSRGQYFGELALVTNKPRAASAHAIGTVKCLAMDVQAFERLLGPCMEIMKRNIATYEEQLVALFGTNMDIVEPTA
# UniProt Q14558: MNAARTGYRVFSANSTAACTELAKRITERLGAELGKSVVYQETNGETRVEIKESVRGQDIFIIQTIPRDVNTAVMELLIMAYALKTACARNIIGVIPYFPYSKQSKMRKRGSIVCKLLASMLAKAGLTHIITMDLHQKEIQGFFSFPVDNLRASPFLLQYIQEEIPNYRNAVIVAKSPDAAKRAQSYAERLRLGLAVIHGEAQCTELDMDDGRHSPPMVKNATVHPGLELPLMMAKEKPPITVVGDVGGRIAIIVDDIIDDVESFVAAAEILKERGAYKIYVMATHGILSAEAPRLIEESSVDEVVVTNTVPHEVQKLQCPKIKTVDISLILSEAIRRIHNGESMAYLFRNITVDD
# UniProt Q04759: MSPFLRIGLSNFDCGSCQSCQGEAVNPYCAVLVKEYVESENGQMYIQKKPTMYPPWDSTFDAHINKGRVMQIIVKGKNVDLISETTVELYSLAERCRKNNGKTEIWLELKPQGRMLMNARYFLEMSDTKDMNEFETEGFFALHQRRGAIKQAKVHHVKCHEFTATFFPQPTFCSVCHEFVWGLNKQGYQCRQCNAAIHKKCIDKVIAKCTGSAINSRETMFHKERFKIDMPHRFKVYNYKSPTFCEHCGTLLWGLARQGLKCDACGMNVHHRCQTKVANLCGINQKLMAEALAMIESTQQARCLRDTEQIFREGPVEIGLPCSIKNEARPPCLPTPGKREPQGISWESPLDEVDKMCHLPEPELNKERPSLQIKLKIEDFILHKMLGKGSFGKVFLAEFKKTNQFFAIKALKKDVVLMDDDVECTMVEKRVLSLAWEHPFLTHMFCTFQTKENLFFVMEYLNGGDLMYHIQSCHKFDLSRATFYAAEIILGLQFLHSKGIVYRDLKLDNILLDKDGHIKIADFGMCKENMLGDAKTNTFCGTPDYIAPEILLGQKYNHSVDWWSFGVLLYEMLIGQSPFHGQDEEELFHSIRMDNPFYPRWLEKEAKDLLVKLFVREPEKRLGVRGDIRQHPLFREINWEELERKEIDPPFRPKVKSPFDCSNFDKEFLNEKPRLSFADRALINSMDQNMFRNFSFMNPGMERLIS
# UniProt O15355: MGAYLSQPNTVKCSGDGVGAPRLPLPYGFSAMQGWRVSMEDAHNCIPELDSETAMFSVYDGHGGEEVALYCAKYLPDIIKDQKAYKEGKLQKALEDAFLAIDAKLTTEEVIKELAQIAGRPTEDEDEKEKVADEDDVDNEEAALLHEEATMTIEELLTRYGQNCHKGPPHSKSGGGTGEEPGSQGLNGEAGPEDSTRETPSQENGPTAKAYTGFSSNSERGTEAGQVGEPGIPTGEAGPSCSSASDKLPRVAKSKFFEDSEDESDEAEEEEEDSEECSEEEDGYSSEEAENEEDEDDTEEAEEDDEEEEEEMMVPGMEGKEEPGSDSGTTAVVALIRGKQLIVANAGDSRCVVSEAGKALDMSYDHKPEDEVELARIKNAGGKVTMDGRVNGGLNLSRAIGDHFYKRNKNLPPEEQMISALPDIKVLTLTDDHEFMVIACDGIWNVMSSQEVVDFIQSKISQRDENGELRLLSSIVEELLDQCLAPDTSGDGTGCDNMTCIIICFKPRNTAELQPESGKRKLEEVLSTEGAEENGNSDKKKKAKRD
# UniProt P05771, whole entry, looked up: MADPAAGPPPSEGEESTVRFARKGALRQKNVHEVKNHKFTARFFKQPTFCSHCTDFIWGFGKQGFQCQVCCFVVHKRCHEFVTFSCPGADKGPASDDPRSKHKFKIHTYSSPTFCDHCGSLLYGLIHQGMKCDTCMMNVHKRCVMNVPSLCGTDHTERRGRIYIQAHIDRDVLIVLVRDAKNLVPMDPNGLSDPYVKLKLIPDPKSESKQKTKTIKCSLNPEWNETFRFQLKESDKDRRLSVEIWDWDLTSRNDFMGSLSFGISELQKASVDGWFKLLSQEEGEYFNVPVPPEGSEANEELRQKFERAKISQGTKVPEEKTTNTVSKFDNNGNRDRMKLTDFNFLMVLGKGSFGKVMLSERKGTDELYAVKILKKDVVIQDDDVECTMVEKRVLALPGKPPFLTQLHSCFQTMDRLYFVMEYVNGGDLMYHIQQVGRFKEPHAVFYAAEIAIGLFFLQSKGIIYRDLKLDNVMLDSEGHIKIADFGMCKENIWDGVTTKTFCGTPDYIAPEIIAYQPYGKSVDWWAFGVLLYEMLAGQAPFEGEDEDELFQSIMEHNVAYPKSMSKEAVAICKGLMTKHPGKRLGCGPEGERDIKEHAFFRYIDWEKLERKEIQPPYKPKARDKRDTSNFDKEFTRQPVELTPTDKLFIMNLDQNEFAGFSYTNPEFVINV
# UniProt Q9NR22, whole entry, looked up: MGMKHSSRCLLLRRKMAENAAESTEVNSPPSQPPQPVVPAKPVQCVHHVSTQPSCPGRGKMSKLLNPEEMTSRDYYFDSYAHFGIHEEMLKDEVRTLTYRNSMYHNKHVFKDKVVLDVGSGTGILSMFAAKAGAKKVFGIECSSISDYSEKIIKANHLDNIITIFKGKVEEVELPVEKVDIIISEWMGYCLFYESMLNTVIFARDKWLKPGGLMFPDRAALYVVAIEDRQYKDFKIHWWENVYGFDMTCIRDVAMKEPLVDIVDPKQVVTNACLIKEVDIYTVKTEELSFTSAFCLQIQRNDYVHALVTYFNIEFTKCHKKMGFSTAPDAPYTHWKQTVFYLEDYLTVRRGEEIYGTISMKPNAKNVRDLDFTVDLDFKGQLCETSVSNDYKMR
# UniProt Q13362, whole entry, looked up: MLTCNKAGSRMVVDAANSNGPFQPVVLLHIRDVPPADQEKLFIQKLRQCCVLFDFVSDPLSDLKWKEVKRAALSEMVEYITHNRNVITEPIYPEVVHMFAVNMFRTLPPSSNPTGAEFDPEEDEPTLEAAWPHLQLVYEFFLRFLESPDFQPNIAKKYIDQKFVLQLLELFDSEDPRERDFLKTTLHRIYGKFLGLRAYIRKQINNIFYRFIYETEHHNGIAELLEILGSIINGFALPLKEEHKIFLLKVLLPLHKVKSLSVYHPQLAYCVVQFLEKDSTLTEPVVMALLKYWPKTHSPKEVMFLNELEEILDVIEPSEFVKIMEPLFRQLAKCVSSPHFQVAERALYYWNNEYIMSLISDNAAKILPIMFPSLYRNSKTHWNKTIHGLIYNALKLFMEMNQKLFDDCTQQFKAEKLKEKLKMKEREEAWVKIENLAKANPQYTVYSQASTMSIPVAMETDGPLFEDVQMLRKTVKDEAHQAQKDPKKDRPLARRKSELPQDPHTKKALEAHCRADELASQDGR
# UniProt K7ELL7: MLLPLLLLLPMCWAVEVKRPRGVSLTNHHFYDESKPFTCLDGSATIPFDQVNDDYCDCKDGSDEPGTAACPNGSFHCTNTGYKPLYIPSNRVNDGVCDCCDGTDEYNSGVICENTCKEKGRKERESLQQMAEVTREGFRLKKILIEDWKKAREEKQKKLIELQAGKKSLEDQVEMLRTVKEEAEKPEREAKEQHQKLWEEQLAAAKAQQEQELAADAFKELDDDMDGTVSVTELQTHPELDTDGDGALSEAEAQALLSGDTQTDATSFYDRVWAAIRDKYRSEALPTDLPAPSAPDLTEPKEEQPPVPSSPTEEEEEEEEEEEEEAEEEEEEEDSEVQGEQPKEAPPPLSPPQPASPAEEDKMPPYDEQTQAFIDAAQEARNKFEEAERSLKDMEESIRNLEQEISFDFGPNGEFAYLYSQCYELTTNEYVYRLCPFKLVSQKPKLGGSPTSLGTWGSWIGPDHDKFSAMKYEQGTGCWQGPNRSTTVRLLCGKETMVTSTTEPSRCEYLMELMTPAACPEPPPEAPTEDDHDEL
# UniProt O43741: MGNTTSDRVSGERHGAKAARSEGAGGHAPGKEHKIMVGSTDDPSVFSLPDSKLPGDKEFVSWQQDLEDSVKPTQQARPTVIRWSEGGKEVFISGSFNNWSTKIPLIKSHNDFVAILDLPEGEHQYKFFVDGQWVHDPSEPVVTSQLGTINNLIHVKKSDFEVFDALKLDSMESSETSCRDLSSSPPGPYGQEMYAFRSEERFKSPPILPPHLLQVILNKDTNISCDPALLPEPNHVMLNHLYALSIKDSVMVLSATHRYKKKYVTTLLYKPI
# UniProt Q99633: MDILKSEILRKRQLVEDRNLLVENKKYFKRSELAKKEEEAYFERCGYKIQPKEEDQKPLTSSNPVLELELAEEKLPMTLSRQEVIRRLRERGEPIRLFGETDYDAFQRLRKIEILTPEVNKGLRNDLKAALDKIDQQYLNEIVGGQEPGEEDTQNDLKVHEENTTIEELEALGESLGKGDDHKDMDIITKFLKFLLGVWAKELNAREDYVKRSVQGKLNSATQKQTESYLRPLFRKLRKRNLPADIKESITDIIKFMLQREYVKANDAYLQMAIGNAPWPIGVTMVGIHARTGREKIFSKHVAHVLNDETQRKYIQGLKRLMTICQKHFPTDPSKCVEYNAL
# UniProt Q8TAP8: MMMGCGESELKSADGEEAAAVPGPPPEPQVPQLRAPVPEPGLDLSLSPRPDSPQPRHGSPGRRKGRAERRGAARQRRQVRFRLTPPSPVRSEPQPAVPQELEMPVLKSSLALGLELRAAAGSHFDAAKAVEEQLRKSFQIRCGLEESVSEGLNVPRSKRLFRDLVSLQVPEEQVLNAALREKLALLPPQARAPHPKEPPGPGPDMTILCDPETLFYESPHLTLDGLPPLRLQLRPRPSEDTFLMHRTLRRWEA
# This is one part of the list.
# Compound: Cc1nc(Nc2n[nH]c3c2CN(C(=O)N[C@H](CN(C)C)c2ccccc2)C3(C)C)c2sccc2n1
# Test: log2 fold change, soluble protein after heating vs DMSO (PISA); higher = thermal stabilisation; K562 cells, 10 uM, 30 min; active = over 0.2 and 3.5 SD of the protein, either way, in both replicates (recomputed)
# Method in brief: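 K562 cells at 2×10^6 cells/mL were treated for 30 min with 10 μM compound, and aliquots were heated for 3 min over 48°C-58°C before pooling. Extraction used PBS with 0.5% NP-40 at 4°C, and soluble protein was the supernatant after 21,000xg for 90 min, measured by TMTpro 16plex LC-MS/MS with channel sums equalised. Thermal stability values, relative to control samples and from duplicates, are log2 fold changes.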
row,Target,log2 fold change
1,PPP1CA (UniProt P62136),inactive: -0.006
2,PPP1R14B (UniProt Q96C90),inactive: -0.044
3,PRKAG1 isoform 3 (UniProt P54619),inactive: -0.189
4,PPP6R3 isoform 5 (UniProt Q5H9R7),inactive: -0.002
5,PRKAR2B (UniProt P31323),active: -1.23
6,PRPSAP1 isoform 2 (UniProt Q14558),inactive: 0.048
7,PRKCQ (UniProt Q04759),active: -0.821
8,PPM1G (UniProt O15355),inactive: -0.05
9,PRKCB isoform 2 (UniProt P05771),active: -0.3
10,PRMT8 (UniProt Q9NR22),inactive: 0.048
11,PPP2R5C isoform 4 (UniProt Q13362),inactive: -0.025
12,PRKCSH (UniProt K7ELL7),inactive: -0.072
13,PRKAB2 (UniProt O43741),inactive: -0.184
14,PRPF18 (UniProt Q99633),inactive: -0.146
15,PRKCA (UniProt P17252),inactive: -0.173
16,PRKDC (UniProt P78527),inactive: -0.017
17,PPP2R5A (UniProt Q15172),inactive: -0.039
18,PPP1R14A (UniProt Q96A00),inactive: 0.013
19,PRKACA (UniProt P17612),active: 0.71
20,PRKAA1 isoform 2 (UniProt Q13131),active: -0.206
21,PRMT7 (UniProt Q9NVM4),inactive: -0.047
22,PPP1R35 (UniProt Q8TAP8),inactive: -0.031

# Fetched one by one from the entries so far (two):
row,Target,log2 fold change
13,PRKAB2 (UniProt O43741),inactive: -0.184
12,PRKCSH (UniProt K7ELL7),inactive: -0.072
